Reference: publication PMC10589265
Results are given in words; binding and its absence hold for the method and conditions named. For some assays here: In cells and extracts the contact can be indirect. Some results given as binding are weak or reduced against the parent protein; the word gives no strength. For some assays here: Where a sequence is shown, tags or fusion partners need not be part of it.

Key:
[1] = biological target: T1, METTL16 (endogenous, HGC-27 cells) (human (endogenous in HGC-27)) (UniProt Q86W50); assay: co-IP; endogenous METTL16 in HGC-27 cells precipitated with anti-METTL16 antibody or IgG (mock IP); co-precipitated SIRT2 detected by western blot
T1 sequence: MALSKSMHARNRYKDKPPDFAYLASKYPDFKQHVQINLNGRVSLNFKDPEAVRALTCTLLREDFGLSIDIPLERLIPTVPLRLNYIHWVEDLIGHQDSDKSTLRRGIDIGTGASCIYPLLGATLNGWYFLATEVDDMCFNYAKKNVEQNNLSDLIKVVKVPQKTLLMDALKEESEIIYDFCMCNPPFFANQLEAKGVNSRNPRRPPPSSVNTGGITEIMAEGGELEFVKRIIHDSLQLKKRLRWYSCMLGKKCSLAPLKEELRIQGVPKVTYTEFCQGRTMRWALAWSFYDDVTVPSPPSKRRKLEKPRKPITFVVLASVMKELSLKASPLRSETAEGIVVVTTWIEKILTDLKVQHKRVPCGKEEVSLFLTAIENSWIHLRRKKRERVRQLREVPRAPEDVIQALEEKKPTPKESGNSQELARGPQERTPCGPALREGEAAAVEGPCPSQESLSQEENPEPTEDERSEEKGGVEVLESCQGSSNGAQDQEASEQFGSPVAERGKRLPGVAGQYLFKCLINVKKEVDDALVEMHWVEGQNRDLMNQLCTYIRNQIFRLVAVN

[2] = biological target: T2, Recombinant His-tagged METTL16 (human) (UniProt Q86W50); assay: pull-down; His-METTL16 on Ni-NTA beads incubated with GST-SIRT2 or GST at 4 °C (legend: 4 h; methods: overnight); beads washed five times; western blot; both purified
T2 sequence: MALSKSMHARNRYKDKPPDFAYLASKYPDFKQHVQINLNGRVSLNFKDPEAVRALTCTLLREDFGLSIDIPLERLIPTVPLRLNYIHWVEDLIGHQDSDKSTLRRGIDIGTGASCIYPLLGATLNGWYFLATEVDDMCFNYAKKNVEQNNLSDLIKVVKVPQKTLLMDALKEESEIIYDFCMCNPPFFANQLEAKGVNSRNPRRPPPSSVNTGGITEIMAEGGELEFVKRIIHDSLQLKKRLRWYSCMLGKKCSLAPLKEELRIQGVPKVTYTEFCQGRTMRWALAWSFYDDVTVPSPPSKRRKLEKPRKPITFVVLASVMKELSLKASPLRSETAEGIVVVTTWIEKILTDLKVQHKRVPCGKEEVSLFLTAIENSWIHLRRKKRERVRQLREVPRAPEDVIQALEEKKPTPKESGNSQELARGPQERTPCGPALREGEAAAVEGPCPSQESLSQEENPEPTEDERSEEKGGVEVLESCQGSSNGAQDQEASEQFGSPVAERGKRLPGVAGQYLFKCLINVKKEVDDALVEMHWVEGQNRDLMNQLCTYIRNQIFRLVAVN

Binder | binding [1] | binding [2]
SIRT2 (endogenous, HGC-27 cells) (enzyme, UniProt Q8IXJ6 1-389) MAEPDPSHPLETQAGKVQEAQDSDSDSEGGAAGGEADMDFLRNLFSQTLSLGSQKERLLDELTLEGVARYMQSERCRRVICLVGAGISTSAGIPDFRSPSTGLYDNLEKYHLPYPEAIFEISYFKKHPEPFFALAKELYPGQFKPTICHYFMRLLKDKGLLLRCYTQNIDTLERIAGLEQEDLVEAHGTFYTSHCVSASCRHEYPLSWMKEKIFSEVTPKCEDCQSLVKPDIVFFGESLPARFFSCMQSDFLKVDLLLVMGTSLQVQPFASLISKAPLSTPRLLINKEKAGQSDPFLGMIMGLGGGMDFDSKKAYRDVAWLGECDQGCLALAELLGWKKELEDLVRREHASIDAQSGAGVPNPSTSASPKKSPPPAKDEARTTEREKPQ | binds | –
GST-SIRT2 (enzyme, UniProt Q8IXJ6 1-389) MAEPDPSHPLETQAGKVQEAQDSDSDSEGGAAGGEADMDFLRNLFSQTLSLGSQKERLLDELTLEGVARYMQSERCRRVICLVGAGISTSAGIPDFRSPSTGLYDNLEKYHLPYPEAIFEISYFKKHPEPFFALAKELYPGQFKPTICHYFMRLLKDKGLLLRCYTQNIDTLERIAGLEQEDLVEAHGTFYTSHCVSASCRHEYPLSWMKEKIFSEVTPKCEDCQSLVKPDIVFFGESLPARFFSCMQSDFLKVDLLLVMGTSLQVQPFASLISKAPLSTPRLLINKEKAGQSDPFLGMIMGLGGGMDFDSKKAYRDVAWLGECDQGCLALAELLGWKKELEDLVRREHASIDAQSGAGVPNPSTSASPKKSPPPAKDEARTTEREKPQ | – | binds
